Test results from PubChem BioAssay AID248 (DTP/NCI, 2004).
The list does not hold the whole screen: it gathers tests that were run many times, whatever their T/C, doses with no T/C, and many T/C values between a quarter and a half above the control. Further doses and runs are listed elsewhere. T/C: endpoint of the treated group in % of that of the vehicle group. Some doses have a count of surviving animals in place of a T/C: the source holds a T/C of zero for them, seemingly a mark for toxic or unscored doses. Some doses without a T/C left all or most animals alive at the check, yet need not have been tolerated: the source hardly ever lists a survival T/C far under the control, and the zero likely stands for such cases as well. Survivors were counted at the toxicity check, usually on the fifth day, unless a day is given; later deaths do not show. Schedule codes are those of the source, taken here to give the interval after Q, in days (D) or hours (H), and the number of doses after X. Some entries hold several experiments; the results are listed from low to high. For survival time, this PubChem deposit counts one and a half times the control or more as active, and values a quarter to a half above the control carry no call in these data; other NCI protocols may use other cut-offs. Some T/C values are followed by the survivors on the day toxicity was checked, most often the fifth; where none is given, no animal had died by that day.

System: L1210 leukemia ip in BDF1 mice, survival T/C
Assay: NCI In Vivo Anticancer Drug Screen. Data for tumor model L1210 Leukemia (intraperitoneal) in B6D2F1 (BDF1) mice
Settings: T/C endpoint: mean survival time, higher T/C = longer survival
[1] = dose: 100.0 mg/kg/injection, schedule: Q01DX009 (ip), vehicle: saline
[2] = dose: 400.0 mg/kg/injection, schedule: Q01DX009 (ip), vehicle: saline with Tween-80
[3] = dose: 400.0 mg/kg/injection, schedule: Q04DX003 (ip), vehicle: saline
[4] = dose: 25.0 mg/kg/injection, schedule: Q04DX003 (ip), vehicle: Klucel (hydroxypropylcellulose) (HPC)
[5] = dose: 100.0 mg/kg/injection, schedule: Q04DX003 (ip), vehicle: Klucel (hydroxypropylcellulose) (HPC)
[6] = dose: 200.0 mg/kg/injection, schedule: Q04DX003 (ip), vehicle: Klucel (hydroxypropylcellulose) (HPC)
[7] = dose: 400.0 mg/kg/injection, schedule: Q01DX001 (ip), vehicle: carboxymethylcellulose (CMC)
[8] = dose: 400.0 mg/kg/injection, schedule: Q01DX001 (ip), vehicle: saline
[9] = dose: 400.0 mg/kg/injection, schedule: Q01DX009 (ip), vehicle: Klucel (hydroxypropylcellulose) (HPC)
[10] = dose: 400.0 mg/kg/injection, schedule: Q04DX003 (ip), vehicle: Klucel (hydroxypropylcellulose) (HPC)
[11] = dose: 200.0 mg/kg/injection, schedule: Q01DX001 (ip), vehicle: saline with Tween-80

With `CC1CCC2(C)CCC3(C)C4=CCC5C(C)(C)C(O)CCC5(C)C4CCC3(C)C2C1C` (stereo not given) the survivor count [1] was 6 of 6.

`O=C(O)CCI` was tested, and the survivor count (dose: 400.0 mg/kg/injection, schedule: Q04DX003 (ip), vehicle: other) was 3 of 6.

With `CN(C)C(=S)NCc1ccccc1` the survivor count [2] was 3 of 6.

In the case of `O=c1c2ccccc2[nH]c2ncccc12`, the survivor count (dose: 400.0 mg/kg/injection, schedule: Q04DX002 (ip), vehicle: Klucel (hydroxypropylcellulose) (HPC)) was 0 of 3.

In the case of `CC(C)(C)CN`, the survivor count (dose: 200.0 mg/kg/injection, schedule: Q01DX009 (ip), vehicle: saline) was 6 of 6 and the survivor count [3] was 0 of 6.

In the case of `CCc1ccc(NC(=O)N(CCCl)N=O)cc1`, the T/C (dose: 5.0 mg/kg/injection, schedule: Q01DX009 (ip), vehicle: Klucel (hydroxypropylcellulose) (HPC)) was 141 % of control, the T/C (dose: 12.5 mg/kg/injection, schedule: Q04DX003 (ip), vehicle: Klucel (hydroxypropylcellulose) (HPC)) was 130 % of control and the T/C [4] was 147 % of control. For the same compound, the T/C (dose: 40.0 mg/kg/injection, schedule: Q01DX009 (ip), vehicle: Klucel (hydroxypropylcellulose) (HPC)) was 141 % of control, the survivor count (dose: 80.0 mg/kg/injection, schedule: Q01DX009 (ip), vehicle: Klucel (hydroxypropylcellulose) (HPC)) was 2 of 6 and 6 of 6 and the T/C [5] was 133 and 142 % of control. The survivor count (dose: 200.0 mg/kg/injection, schedule: Q01DX001 (ip), vehicle: carboxymethylcellulose (CMC)) was 2 of 4, the T/C [6] was 131 % of control and the survivor count [7] was 1 of 4.

For `CCSC(C(O)C(O)C(O)C(O)CO)n1ccc(=O)[nH]c1=O` (stereo not given), the survivor count [1] was 6 of 6.

With `Clc1ccc(SCN(CSc2ccc(Cl)cc2)Cc2ccccc2)cc1` the survivor count [8] was 6 of 6.

For `CCCCCC[n+]1cccc(C#N)c1`, the survivor count (dose: 300.0 mg/kg/injection, schedule: Q04DX003 (ip), vehicle: saline) was 0 of 6.

With `N#CC(/C=C/c1ccco1)Nc1ccccc1C(N)=O` (stereo not given) the survivor count [9] was 0 of 6.

In the case of `C/C=C(\c1ccccc1)[N+](=O)[O-]`, the survivor count (dose: 100.0 mg/kg/injection, schedule: Q01DX001 (ip), vehicle: acetone) was 5 of 6, the survivor count (dose: 113.0 mg/kg/injection, schedule: Q04DX003 (ip), vehicle: saline) was 6 of 6 and the survivor count (dose: 169.0 mg/kg/injection, schedule: Q04DX003 (ip), vehicle: saline) was 4 of 6. For the same compound, the survivor count (dose: 200.0 mg/kg/injection, schedule: Q01DX001 (ip), vehicle: acetone) was 0 of 6 and the survivor count (dose: 400.0 mg/kg/injection, schedule: Q01DX001 (ip), vehicle: acetone) was 0 of 6.

For `O=C(Nc1ccc2c(c1)C(Br)c1ccccc1-2)C(F)(F)F` (stereo not given), the survivor count [9] was 6 of 6.

In the case of `Nc1ccc(N=Nc2ccc(O)cc2)c(N)n1`, the survivor count [8] was 1 of 4.

For `O=C(CCCN1CCN(c2ccccn2)CC1)c1ccc(F)cc1`, the T/C (dose: 100.0 mg/kg/injection, schedule: Q01DX009 (ip), vehicle: Klucel (hydroxypropylcellulose) (HPC)) was 125 % of control [4 of 6 alive], the survivor count (dose: 200.0 mg/kg/injection, schedule: Q01DX009 (ip), vehicle: Klucel (hydroxypropylcellulose) (HPC)) was 0 of 6 and the survivor count [10] was 2 of 4.

`CSCCOC(=O)C1C2CCC(O2)C1C(=O)O` (stereo not given) was tested, and the survivor count [4] was 3 of 6, the survivor count (dose: 50.0 mg/kg/injection, schedule: Q04DX003 (ip), vehicle: Klucel (hydroxypropylcellulose) (HPC)) was 0 of 6 and the survivor count [5] was 0 of 6. The survivor count [6] was 0 of 6 and the survivor count [10] was 0 of 6.

With `CC1CN1CCS(=O)(=O)CCN1CC1C` (stereo not given) the T/C (dose: 2.5 mg/kg/injection, schedule: Q01DX015 (ip), vehicle: carboxymethylcellulose (CMC)) was 129 % of control, the T/C (dose: 5.0 mg/kg/injection, schedule: Q01DX015 (ip), vehicle: carboxymethylcellulose (CMC)) was 128 % of control [5 of 6 alive] and the survivor count (dose: 20.0 mg/kg/injection, schedule: Q01DX015 (ip), vehicle: carboxymethylcellulose (CMC)) was 5 of 6. For the same compound, the survivor count (dose: 40.0 mg/kg/injection, schedule: Q01DX015 (ip), vehicle: carboxymethylcellulose (CMC)) was 2 of 6.

With `O=C(O)c1ccc2c(c1)C(=O)c1cc([N+](=O)[O-])ccc1-2` the survivor count [7] was 1 of 4.

In the case of `CC(Cc1ccccc1)NCCCCl` (stereo not given), the survivor count (dose: 75.0 mg/kg/injection, schedule: Q01DX001 (ip), vehicle: carboxymethylcellulose (CMC)) was 2 of 6, the survivor count (dose: 150.0 mg/kg/injection, schedule: Q01DX001 (ip), vehicle: carboxymethylcellulose (CMC)) was 1 of 6 and the survivor count (dose: 300.0 mg/kg/injection, schedule: Q01DX001 (ip), vehicle: carboxymethylcellulose (CMC)) was 0 of 6.

For `S=C(Nc1ccccc1)Nc1ccc(Cl)c(Cl)c1`, the survivor count (dose: 50.0 mg/kg/injection, schedule: Q01DX009 (ip), vehicle: saline with Tween-80) was 6 of 6, the survivor count (dose: 200.0 mg/kg/injection, schedule: Q01DX009 (ip), vehicle: saline with Tween-80) was 6 of 6 and the survivor count [2] was 0 of 6.

`C[CH2][Ge]([CH2]C)[O][Ge]([CH2]C)[CH2]C.C[CH2][Ge]([CH2]C)[O][Ge]([CH2]C)[CH2]C` was tested, and the survivor count (dose: 100.0 mg/kg/injection, schedule: Q04DX002 (ip), vehicle: saline with Tween-80) was 0 of 3, the survivor count (dose: 200.0 mg/kg/injection, schedule: Q04DX002 (ip), vehicle: saline with Tween-80) was 0 of 3 and the survivor count (dose: 400.0 mg/kg/injection, schedule: Q04DX002 (ip), vehicle: saline with Tween-80) was 0 of 3.

For `O=C(Nc1cccc(C(F)(F)F)c1)c1ccc(Cl)c(Cl)c1`, the survivor count (dose: 200.0 mg/kg/injection, schedule: Q01DX009 (ip), vehicle: gum acacia) was 6 of 6.

With `CC(CO)CCC(O)C(C)C1CCC2C3CCC4CC(O)CCC4(C)C3CCC12C` (stereo not given) the survivor count (dose: 25.0 mg/kg/injection, schedule: Q01DX001 (ip), vehicle: saline with Tween-80) was 6 of 6, the survivor count (dose: 50.0 mg/kg/injection, schedule: Q01DX001 (ip), vehicle: saline with Tween-80) was 6 of 6 and the survivor count (dose: 100.0 mg/kg/injection, schedule: Q01DX001 (ip), vehicle: saline with Tween-80) was 6 of 6. For the same compound, the survivor count [11] was 6 of 6.

With `CCN(CC)CCN(C)CCN(CC)CC` the survivor count [3] was 2 of 6.

With `CCCCCCCCCCCCCCCCCCNc1nc(SC)ncc1C(=O)OCC` the survivor count (dose: 200.0 mg/kg/injection, schedule: Q01DX001 (ip), vehicle: saline) was 0 of 6 and the survivor count [8] was 0 of 6.

With `Nc1nc(=S)c2n[nH]nc2[nH]1` the survivor count [11] was 1 of 6 and the survivor count (dose: 400.0 mg/kg/injection, schedule: Q01DX001 (ip), vehicle: saline with Tween-80) was 1 of 6.

With `O=c1ccc2cc3cc(I)c(O)c(I)c3oc-2c1I` the survivor count [9] was 0 of 6.

For `CC1NCCC1CO` (stereo not given), the survivor count [3] was 0 of 6.
